# Data: PubChem BioAssay AID1259354 (Paczesny and Yang Labs, IUPUI and University of Michigan, 2018)
# Sequences of proteins named here, by UniProt entry; tags and fusion partners are left off. A change or cut given only in a name is not applied to a line headed by its entry.
# UniProt Q01638: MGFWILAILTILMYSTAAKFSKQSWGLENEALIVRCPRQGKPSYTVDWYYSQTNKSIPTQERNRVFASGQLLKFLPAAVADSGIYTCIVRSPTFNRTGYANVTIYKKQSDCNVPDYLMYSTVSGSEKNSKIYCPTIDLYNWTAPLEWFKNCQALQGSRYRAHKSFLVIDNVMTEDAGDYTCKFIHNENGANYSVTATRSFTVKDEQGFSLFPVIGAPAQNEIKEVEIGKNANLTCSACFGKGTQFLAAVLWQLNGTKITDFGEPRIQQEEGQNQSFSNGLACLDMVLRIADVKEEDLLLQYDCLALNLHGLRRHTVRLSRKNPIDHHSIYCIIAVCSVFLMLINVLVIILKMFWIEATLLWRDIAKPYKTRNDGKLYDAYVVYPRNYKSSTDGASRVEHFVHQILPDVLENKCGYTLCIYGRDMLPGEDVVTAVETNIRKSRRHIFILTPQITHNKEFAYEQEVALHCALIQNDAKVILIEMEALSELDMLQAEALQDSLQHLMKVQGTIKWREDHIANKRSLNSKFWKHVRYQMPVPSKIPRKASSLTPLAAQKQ
# Hit rate of the full screen: of about 78,000 compounds, about 1,800 (2.3%) were called active. Inconclusive means that the source gave no clear call. Such entries were picked first, then a sample of the others. Rule as the data show it: active = inhibition above about 30%; inconclusive = mostly about 10% to 28%; inactive = weaker than that. Where a structure was tested more than once in an assay, its records may differ in their call.
# Target: Interleukin-1 receptor-like 1 (Homo sapiens) (UniProt Q01638)
# Assay: blocks human ST2 binding to IL-33, primary screen, biochemical, AlphaLISA (AID 1259354)
# Details: AlphaLISA ST2-Fc/biotin-IL-33 interaction, 1 h; at 17 µM, hits give high values
row,Compound,inhibition
1,CCOc1cc(C2C3=C(Nc4c2c(=O)n(C)c(=O)n4C)c2ccccc2C3=O)ccc1O (stereo unspecified),inactive
2,COc1ccc(-c2cc3ccccn3c2)c(OC)c1,active: 50%
3,Cc1ccnc(N=Cc2nc(-c3ccc(Br)cc3)oc2O)c1,inconclusive: 19%
4,CCC(=O)Nc1ccc(-c2csc(N)n2)cc1,inactive
5,C=CCc1ccccc1OCCN(C)C(=O)c1c[nH]c2c(C)cccc2c1=O,inactive
6,CCOc1cccc(CN2CCC(C(=O)NCc3ccccn3)CC2)c1O,inactive
7,O=[N+]([O-])c1ncn(CNc2cc(Br)cc3cccnc23)n1,inconclusive: 24%
8,COc1cc(NC(=O)CC2CCCCC2)c(OC)cc1Cl,inactive
9,Cc1ccccc1Cn1cc(NC(=O)c2cc(-c3cccc(Cl)c3)on2)cn1,inactive
10,Cc1cccn2c(=O)c3cc(C(=O)N(C)C4CCCCC4)n(C)c3nc12,inconclusive: 12%
11,COc1ccc(CNC(=O)C(OC)c2ccccc2)cc1 (stereo unspecified),inactive
12,N#Cc1ccc(Oc2ccccc2N2C(=O)c3ccc(Br)cc3C2=O)cc1,inconclusive: 23%
13,O=C(CNS(=O)(=O)c1ccc(Br)s1)NCc1ccccn1,inactive
14,Cn1c(=O)c2c(nc3n(Cc4ccco4)c(-c4ccc(Cl)cc4)cn23)n(C)c1=O,inconclusive: 11%
15,N/C(Cc1ccc([N+](=O)[O-])cc1)=N/OC(=O)c1cccs1,inconclusive: 14%
16,O=C(N[C@@H]1CN(C(=O)NC2CCCCC2)CCC[C@H]1O)c1ccc(OCCN2CCCC2)cc1,inconclusive: 16%
17,COc1ccccc1N1CCN(C2CCCN(S(=O)(=O)Cc3ccccc3)C2)CC1 (stereo unspecified),inconclusive: 18%
18,CCN(CC)C(=O)Cn1cnc2sc(C(=O)Nc3ccccc3C(F)(F)F)c(C)c2c1=O,inactive
19,O=C(c1nc2ccccn2c1CNCCc1ccccc1F)N1CCOCC1,inconclusive: 10%
20,COc1ccc(OC)c(C2Nc3ccccc3NC3=C2C(=O)CC(c2ccccc2Cl)C3)c1 (stereo unspecified),inconclusive: 21%
21,COC(=O)c1cc(-c2ccccc2)sc1NC(=O)CSc1nnc2ccccn12,inconclusive: 13%
22,O=C(NCc1cccs1)c1cc2nc(-c3ccco3)cc(C(F)(F)Cl)n2n1,inconclusive: 26%
23,COc1ccccc1CN1CC[C@H](c2nnc(C)o2)C1,inactive
24,CN(C)Cc1cc(-c2nccn2CCc2cccnc2)ccc1O,inconclusive: 12%

row,Compound,inhibition
1,CC1=CC(C)(C)N(C(=O)CSc2nnc3sc4ccccc4n23)c2ccccc21,inconclusive: 10%
2,CC(=O)Nc1ccc(Cl)c(C(=O)NCc2cnc(C)cn2)c1,inconclusive: 10%
3,Cc1ccc(C(=O)N2N=C(c3ccccc3)CC2c2ccccc2)cc1 (stereo unspecified),inactive
4,Cc1[nH][nH]c(=O)c1C(c1cc(Br)ccc1O)c1c(C)[nH][nH]c1=O,inconclusive: 16%
5,Cc1oc(-c2cccc(NC(=O)CC(C)C)c2)nc1CNC(=O)Cc1cc(F)cc(F)c1,inconclusive: 14%
6,Cc1cc(C(=O)N2CCn3c(C(N)=O)cnc3C2)c(-c2ccccc2)o1,inconclusive: 17%
7,O=C(Nc1c2c(nn1-c1ccc(Cl)cc1)CSC2)c1cccc(Br)c1,inconclusive: 10%
8,Cc1nc(C(=O)N(CC2CCN(C3Cc4ccccc4C3)CC2)CC2CCCO2)cs1 (stereo unspecified),inconclusive: 10%
9,COc1ccc(-c2nc(CN3CCSCC3)c(C)o2)c(OC)c1C,inconclusive: 22%
10,Brc1ccc(-c2ncnn2-c2ccc(Br)nc2)cc1,inactive
11,COc1ccc(-c2cc(=O)c3cc(Br)ccc3o2)cc1OC,active: 31%
12,CCC(=O)N1CCc2cc(Br)cc(S(=O)(=O)Nc3ccc(C)c(F)c3)c21,inactive
13,COc1ccccc1CNC(=O)c1ccc(I)cc1,inactive
14,Cn1c(=O)c2[nH]c(SCC(=O)c3ccc4c(c3)OCCO4)nc2n(C)c1=O,inactive
15,O=C(Cn1cnc2c(cnn2-c2ccc(Cl)cc2)c1=O)N1CCN(c2ccccc2)CC1,inconclusive: 10%
16,O=C(Cn1c2ccccc2c(=O)c2ccccc21)Nc1ccc(Br)cn1,inconclusive: 12%
17,Cc1nn(-c2ccccc2)c(C)c1CC(=O)O,inactive
18,O=C(O)c1ccc(CN2CC[C@H](c3nnc(-c4cccnc4)o3)C2)cc1,inconclusive: 14%
19,COc1ccc(N2CCN(Cc3cccs3)CC2)cc1,inconclusive: 18%
20,Cc1cc(Br)ccc1S(=O)(=O)n1ccnc1,inconclusive: 17%
21,O=C(CSc1nc2c(c(=O)n1-c1ccc(F)cc1)SCC2)NCc1ccco1,inconclusive: 10%
22,Cc1ccc(C)c2c1NC(=O)C2CC(=O)N(CCO)Cc1nccs1 (stereo unspecified),inactive
23,Cc1ccccc1Oc1ccc(N2C(=O)C3C4C=CC(C4)C3(C)C2=O)cc1 (stereo unspecified),inactive
24,c1ccc(COC2CCCN(Cc3cnc(N4CCCC4)nc3)C2)nc1 (stereo unspecified),inconclusive: 10%

row,Compound,inhibition
1,COc1ccc([N+](=O)[O-])cc1-c1ccc(C=C2C(=O)OC(C)(C(C)(C)C)OC2=O)o1 (stereo unspecified),inconclusive: 13%
2,Cc1ccc2nc(CN(C)C(=O)CC3CCc4ccccc43)[nH]c2c1 (stereo unspecified),inconclusive: 16%
3,CCOc1ccccc1N1COc2ccc3ccccc3c2C1,inactive
4,Cc1cccc(NC(c2cccc(O)c2)c2ccc3ccc(C)nc3c2O)n1 (stereo unspecified),inconclusive: 19%
5,COCc1nnc(NC(=O)c2ccc(S(=O)(=O)N(CCC#N)CCC#N)cc2)o1,inactive
6,O=C(c1cccc(N2CCOCC2)c1)N1CCCC(CO)(Cc2ccc(F)cc2F)C1 (stereo unspecified),inconclusive: 10%
7,Cc1ccc([N+](=O)[O-])cc1NC(=O)c1ccc(I)cc1,inconclusive: 14%
8,Nc1ncnc2c1ncn2C1CCCC1,inconclusive: 13%
9,CC(C(=O)O)N1C(=O)c2ccccc2C1=O (stereo unspecified),inconclusive: 11%
10,O=C(c1cc(COc2ccc3c(c2)CCCC3)on1)N1CCC(c2ccncc2)CC1,inconclusive: 13%
11,CC1(C)CC(=O)C2=C(C1)Nc1ccccc1N(C(=O)C(F)(F)F)C2c1ccc([N+](=O)[O-])cc1 (stereo unspecified),inconclusive: 21%
12,O=C(CSc1nnc(Cc2cc(=O)[nH]c(=O)[nH]2)n1-c1ccccc1)NCc1ccccc1,inactive
13,CCC(C(=O)N1C[C@H]2CC=CC[C@H]2C1)n1cccn1 (stereo partly specified),inactive
14,Cc1cc(CNC(=O)C2CC(=O)Nc3ccc(F)cc32)c2[nH]c(C)c(C)c2c1 (stereo unspecified),inactive
15,O=C(Nc1ccc(I)cc1)c1ccc([N+](=O)[O-])o1,inconclusive: 21%
16,CCCOc1ccc(C(=O)Nc2ccc(F)cc2F)cc1,inconclusive: 12%
17,COc1cc2c(cc1OC)C(C(CCC(C)C)C(N)=O)=NC(C)(C)C2 (stereo unspecified),inconclusive: 18%
18,NC(=O)c1cccc(CC2CCN(C(=O)c3ccc4c(c3)OCO4)C2)c1 (stereo unspecified),inconclusive: 11%
19,CC(NS(=O)(=O)c1cccc2nsnc12)C12CC3CC(CC(C3)C1)C2 (stereo unspecified),inconclusive: 21%
20,O=S(=O)(Nc1ccccn1)c1ccc(N=Cc2ccc(Cl)c(Cl)c2)cc1,inconclusive: 12%
21,CCCc1nnc([C@H]2CCN(Cc3ccc(NC(C)=O)cc3)C2)o1,inconclusive: 10%
22,Cc1ccc(C(c2sc3nc(C)nn3c2O)N2CC(C)OC(C)C2)cc1 (stereo unspecified),inconclusive: 13%
23,CC1=C(C(N)=O)C(c2cccc(F)c2)n2nc(SCc3ccccc3)nc2N1 (stereo unspecified),active: 32%
24,CCc1ccc(C(=O)c2c[nH]c3ccc(CC)cc3c2=O)cc1,inactive

# A draw from above in order of length of the SMILES, falling.
row,Compound,inhibition
17,COc1ccccc1N1CCN(C2CCCN(S(=O)(=O)Cc3ccccc3)C2)CC1 (stereo unspecified),inconclusive: 18%
2,Cc1ccc2nc(CN(C)C(=O)CC3CCc4ccccc43)[nH]c2c1 (stereo unspecified),inconclusive: 16%
22,Cc1ccc(C)c2c1NC(=O)C2CC(=O)N(CCO)Cc1nccs1 (stereo unspecified),inactive

# The list continues:

row,Compound,inhibition
1,Cc1ccc(C(=O)Nc2ccc(Br)cc2)o1,inconclusive: 16%
2,CCCn1cc(CNC(C)c2cnc(-c3ccncc3)nc2C)c(C)n1 (stereo unspecified),inactive
3,O=C1CC(c2cccs2)CC2=C1C(c1ccc(Cl)cc1Cl)Nc1ccccc1N2 (stereo unspecified),inconclusive: 11%
4,Cc1ccc(NC(=O)CN2CCCC(N3CCCC3=O)C2)cc1F (stereo unspecified),inconclusive: 23%
5,COc1ccc(Nc2ccc(C(=O)N3CC(=O)Nc4ccccc43)cc2[N+](=O)[O-])cc1,inconclusive: 16%
6,COc1ccc(CCNC(=O)CSc2nc(N)c3c4c(sc3n2)CCCC4)cc1,inconclusive: 14%
7,COc1ccc(N(N)Cc2ccccc2)cc1,active: 50%
8,CCCCOc1ccc(C(=O)Nc2ccc(Nc3nc(C)cc(Nc4ccccc4)n3)cc2)cc1,inconclusive: 13%
9,CCOc1ccccc1CCCNc1nc(C)nc2c1CCNC2,inactive
10,Cn1c(COc2ccc(Cl)cc2Cl)nc2ccccc21,inactive
11,COC(=O)c1sc2nc(N3CCCCC3)c3c(c2c1N)CC(C)(C)OC3,inactive
12,COc1cccc(COC2CN(Cc3ccccn3)C(=O)CN(C(=O)c3ccc(C)s3)C2)c1 (stereo unspecified),inconclusive: 24%
13,CC1Cc2ccccc2N1C(=O)c1ccc(N2CCCCC2)c([N+](=O)[O-])c1 (stereo unspecified),inconclusive: 27%
14,CCc1nnc(NC(=O)c2ccc(S(=O)(=O)N3CCc4ccccc4C3)cc2)o1,inconclusive: 14%
15,O=C1CC2(CCN(C(=O)c3ccc4cccc(Cl)c4n3)CC2)CN1,inconclusive: 14%
16,CCC1Oc2ccccc2N(CC(=O)NCCN2CCCC2)C1=O (stereo unspecified),inactive
17,CCC1Oc2ccccc2C2CC(c3cccs3)=NN12 (stereo unspecified),inconclusive: 26%
18,Cc1ccccc1CCC1CCCN(C(=O)Cc2c(C)[nH]c(=O)[nH]c2=O)C1 (stereo unspecified),inactive
19,O=C1CC(c2ccc(F)cc2)c2cc3c(cc2N1)OCCO3 (stereo unspecified),inactive
20,O=c1nc(/C=C/c2ccc(-c3ccccc3[N+](=O)[O-])o2)cc(C(F)(F)F)[nH]1,inconclusive: 14%
21,COc1nc2ccccc2cc1-c1nc(C)ncc1C,inactive
22,Cc1cc(Br)ccc1OCC(=O)NCC1CCCO1 (stereo unspecified),inactive
23,O=C1c2ccccc2NC(c2cccc(F)c2)N1c1ccccc1 (stereo unspecified),inconclusive: 16%
24,Cn1c(=NC(=O)c2ccc(S(=O)(=O)N3CCCCC3)cc2)sc2ccccc21,inactive

# 3 of the compounds above, tab-delimited.
row	Compound	inhibition
10	Cn1c(COc2ccc(Cl)cc2Cl)nc2ccccc21	inactive
11	COC(=O)c1sc2nc(N3CCCCC3)c3c(c2c1N)CC(C)(C)OC3	inactive
12	COc1cccc(COC2CN(Cc3ccccn3)C(=O)CN(C(=O)c3ccc(C)s3)C2)c1 (stereo unspecified)	inconclusive: 24%
